The values below come from patent publication US9119879B2, “Oral care compositions comprising a quinone and a further antimicrobial agent” (Colgate-Palmolive Company, priority 2010, dated 2015).

The test concerns A. viscosus biofilm. Nature of the test: Single species A. viscosus biofilm assay (Biofilm Eradication Concentration, BEC50). In kind it is cell-based. The method, then:
TBHQ and a series of actives were tested in single species of A. viscosus biofilm assay. The data described in Tables 2 and 3 (below) is reported as the Biofilm Eradication Concentration (BEC50) which is the lowest concentration at which greater than 50% reduction in biofilm biomass is observed relative to control.

As for `CCCCCCCCCCCCCCCC[n+]1ccccc1` [Cetylpyridinium chloride, reference compound], the “BEC50 of Active + 50 ppm TBHQ” value (active combined with 50 ppm TBHQ) is less than 0.03 ppm. Moreover, the “BEC50 of Active Alone” value (lowest concentration with greater than 50% reduction in biofilm biomass relative to control, TBHQ tested at 50 ppm) is on record as 0.97 ppm.
